The text below walks through data of article PMC9718803.

Sequences of proteins named here, by UniProt entry; tags and fusion partners are left off.
UniProt F4J8G7: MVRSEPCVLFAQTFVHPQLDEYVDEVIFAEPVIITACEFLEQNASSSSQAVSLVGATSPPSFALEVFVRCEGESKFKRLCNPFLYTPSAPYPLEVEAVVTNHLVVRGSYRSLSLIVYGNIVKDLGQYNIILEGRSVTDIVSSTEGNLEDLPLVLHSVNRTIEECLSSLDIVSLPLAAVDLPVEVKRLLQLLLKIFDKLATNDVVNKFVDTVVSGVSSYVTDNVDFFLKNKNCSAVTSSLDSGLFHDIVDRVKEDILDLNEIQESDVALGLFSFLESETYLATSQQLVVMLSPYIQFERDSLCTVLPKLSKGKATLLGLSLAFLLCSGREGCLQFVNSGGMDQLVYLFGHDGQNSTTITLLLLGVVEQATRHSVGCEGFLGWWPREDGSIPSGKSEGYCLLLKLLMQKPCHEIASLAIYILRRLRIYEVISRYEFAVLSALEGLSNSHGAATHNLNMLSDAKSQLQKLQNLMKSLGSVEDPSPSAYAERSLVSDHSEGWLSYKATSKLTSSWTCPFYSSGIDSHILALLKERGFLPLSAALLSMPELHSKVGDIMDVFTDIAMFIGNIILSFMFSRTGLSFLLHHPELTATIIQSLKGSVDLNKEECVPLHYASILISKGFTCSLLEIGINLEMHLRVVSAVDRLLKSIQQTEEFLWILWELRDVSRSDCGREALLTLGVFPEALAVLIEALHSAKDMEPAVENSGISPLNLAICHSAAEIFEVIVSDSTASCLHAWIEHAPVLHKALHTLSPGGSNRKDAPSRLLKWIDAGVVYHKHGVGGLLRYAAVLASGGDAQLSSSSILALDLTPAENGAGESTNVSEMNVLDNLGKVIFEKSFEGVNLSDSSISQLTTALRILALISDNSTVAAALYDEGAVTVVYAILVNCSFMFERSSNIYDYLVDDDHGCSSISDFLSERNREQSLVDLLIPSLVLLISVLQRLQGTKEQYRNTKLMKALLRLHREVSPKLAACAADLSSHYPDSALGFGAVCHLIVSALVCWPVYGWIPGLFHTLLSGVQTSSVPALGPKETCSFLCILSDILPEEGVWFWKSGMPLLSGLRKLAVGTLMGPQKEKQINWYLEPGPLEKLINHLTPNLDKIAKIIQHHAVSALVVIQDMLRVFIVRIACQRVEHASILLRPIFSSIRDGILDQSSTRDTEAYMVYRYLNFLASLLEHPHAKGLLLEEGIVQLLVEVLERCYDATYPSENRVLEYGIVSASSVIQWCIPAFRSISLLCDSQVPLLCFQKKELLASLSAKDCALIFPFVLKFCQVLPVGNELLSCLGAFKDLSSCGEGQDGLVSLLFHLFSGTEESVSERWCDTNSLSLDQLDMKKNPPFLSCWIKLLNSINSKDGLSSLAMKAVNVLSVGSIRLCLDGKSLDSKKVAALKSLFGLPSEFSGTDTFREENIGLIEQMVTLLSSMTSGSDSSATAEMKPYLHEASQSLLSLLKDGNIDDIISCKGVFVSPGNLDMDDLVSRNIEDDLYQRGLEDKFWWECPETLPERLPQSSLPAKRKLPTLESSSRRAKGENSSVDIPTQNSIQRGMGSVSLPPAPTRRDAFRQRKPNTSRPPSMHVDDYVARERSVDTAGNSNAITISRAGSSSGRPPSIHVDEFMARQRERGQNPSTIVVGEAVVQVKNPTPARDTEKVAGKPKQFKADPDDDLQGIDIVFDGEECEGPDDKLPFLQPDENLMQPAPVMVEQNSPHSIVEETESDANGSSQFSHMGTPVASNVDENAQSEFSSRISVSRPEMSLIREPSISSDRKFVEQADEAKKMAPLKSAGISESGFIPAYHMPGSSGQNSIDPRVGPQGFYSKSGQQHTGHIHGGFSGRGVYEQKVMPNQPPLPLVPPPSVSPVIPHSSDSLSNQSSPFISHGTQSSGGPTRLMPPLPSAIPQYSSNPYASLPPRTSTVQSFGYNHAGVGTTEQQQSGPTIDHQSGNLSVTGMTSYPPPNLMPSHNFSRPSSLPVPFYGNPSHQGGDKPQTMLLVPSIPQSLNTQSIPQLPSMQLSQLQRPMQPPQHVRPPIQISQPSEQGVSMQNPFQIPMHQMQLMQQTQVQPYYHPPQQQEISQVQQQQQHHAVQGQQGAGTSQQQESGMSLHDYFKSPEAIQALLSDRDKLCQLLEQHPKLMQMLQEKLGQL

This experiment concerns the target VIRILIZER (VIR) (Arabidopsis thaliana (endogenous in Col-0 seedlings)) (UniProt F4J8G7). Description: affinity purification with mass spectrometry; RNA immunoprecipitation (RIP) from clarified lysate of 7-day-old Col-0 seedlings (50 mM Tris-HCl pH 7.4, 2.5 mM MgCl2, 100 mM KCl, 0.1% Nonidet P-40, RNase OUT) with anti-VIR antibody bound to protein A agarose; normal rabbit IgG as control; associated proteins identified by LC-MS/MS.

No constants are given. Whether binding was seen depends on the method and setting. In cells and extracts the contact can be indirect. Here binding means that the protein was enriched with, or labelled near, the bait; the list need not be complete.

B1: DEAD box RNA helicase 3 (RH3) (protein, UniProt Q8L7S8 61-748)
chain: AVATPNSVLSEEAFKSLGLSDHDEYDLDGDNNNVEADDGEELAISKLSLPQRLEESLEKRGITHLFPIQRAVLVPALQGRDIIARAKTGTGKTLAFGIPIIKRLTEEAGDYTAFRRSGRLPKFLVLAPTRELAKQVEKEIKESAPYLSTVCVYGGVSYTIQQSALTRGVDVVVGTPGRIIDLIEGRSLKLGEVEYLVLDEADQMLAVGFEEAVESILENLPTKRQSMLFSATMPTWVKKLARKYLDNPLNIDLVGDQDEKLAEGIKLYAIATTSTSKRTILSDLITVYAKGGKTIVFTQTKRDADEVSLALSNSIATEALHGDISQHQRERTLNAFRQGKFTVLVATDVASRGLDIPNVDLVIHYELPNDPETFVHRSGRTGRAGKEGSAILMHTSSQKRTVRSLERDVGCHFEFISPPTVGDLLESSADQVVATLNGVHPDSIKFFSATAQKLYEEKGTDALAAALAHLSGFSQPPSSRSLLSHEKGWVTLQLIRDPTNARGFLSARSVTGFLSDLYRTAADEVGKIFLIADDRIQGAVFDLPEEIAKELLEKDVPEGNSLSMITKLPPLQDDGPSSDNYGRFSSRDRMPRGGGGSRGSRGGRGGSSRGRDSWGGDDDRGSRRSSGGGSSWSRGGSSSRGSSDDWLIGGRSSSSSRAPSRERSFGGSCFICGKSGHRATDCPDKRGF
Take B1: the binding entry is given as “binds”.

B2: PTAC5 (protein, UniProt A1A6M1 41-387)
chain: CFSTQNPDREEVRWLREEQRWIREEQRWIREEQRWIRERESLLQEISDLQLRIQSLESRNSQLGNSIPDTISNIAALLQVLKEKNRISESGLSATPMVLESTREQIVEEVEEEEKRVIIAEEKVRVSEPVKKIKRRILKVGSEGDDVQALQEALLKLGFYSGEEDMEFSSFSSGTASAVKTWQASLGVREDGVMTAELLQRLFMDEDVETDKDEASTMKKEEAGNGAVFTSVTQVPEKKQSIVKDQSDREVDVTQNRVFLLGENRWEDPSRLIGRNKPVDRSESTNTKTRCITCRGEGRLMCLECDGTGEPNIEPQFMEWVGEDTKCPYCEGLGYTVCDVCDGKKNL
Turning to B2, the binding result is recorded as “binds”.

B3: RNA Recognition Motif (RRM)-containing protein UBA2C (protein, UniProt Q9LKA4 1-404)
chain: MDMMKKRKLDENGNGLNTNGGGTIGPTRLSPQDARKIIERFTTDQLLDLLQEAIVRHPDVLESVRLTADSDISQRKLFIRGLAADTTTEGLRSLFSSYGDLEEAIVILDKVTGKSKGYGFVTFMHVDGALLALKEPSKKIDGRVTVTQLAASGNQGTGSQIADISMRKIYVANVPFDMPADRLLNHFMAYGDVEEGPLGFDKVTGKSRGFALFVYKTAEGAQAALADPVKVIDGKHLNCKLAVDGKKGGKPGMPQAQDGGSGHGHVHGEGMGMVRPAGPYGAAGGISAYGGYSGGPPAHHMNSTHSSMGVGSAGYGGHYGGYGGPGGTGVYGGLGGGYGGPGTGSGQYRMPPSSMPGGGGYPESGHYGLSSSAGYPGQHHQAVGTSPVPRVPHGGMYPNGPPNY
With B3, the binding result was “binds”.

B4: Arabidopsis Eukaryotic translation initiation factor 3 (eIF3e) (protein, UniProt Q9C5Z3 1-441)
chain: MEESKQNYDLTPLIAPNLDRHLVFPIFEFLQERQLYPDEQILKSKIQLLNQTNMVDYAMDIHKSLYHTEDAPQEMVERRTEVVARLKSLEEAAAPLVSFLLNPNAVQELRADKQYNLQMLKERYQIGPDQIEALYQYAKFQFECGNYSGAADYLYQYRTLCSNLERSLSALWGKLASEILMQNWDIALEELNRLKEIIDSKSFSSPLNQVQNRIWLMHWGLYIFFNHDNGRTQIIDLFNQDKYLNAIQTSAPHLLRYLATAFIVNKRRRPQLKEFIKVIQQEHYSYKDPIIEFLACVFVNYDFDGAQKKMKECEEVIVNDPFLGKRVEDGNFSTVPLRDEFLENARLFVFETYCKIHQRIDMGVLAEKLNLNYEEAERWIVNLIRTSKLDAKIDSESGTVIMEPTQPNVHEQLINHTKGLSGRTYKLVNQLLEHTQAQATR
Regarding B4, the binding entry is listed as “binds”.

B5: HAKAI (protein, UniProt Q9LFC0 1-360)
chain: MLQIRLRRDSPTETGNGARPSPTETVTVACPDHLVLADLPVAKGIGSVTPTTVIKPVGRRSRRQLGERVHFCVRCDFPIAIYGRLIPCDHAFCLECARSDSICYLCDERIQKIQTIKMMEGIFICAAPHCLRSFLKKLDFEAHVHDLHGSLLQADAEKEDGNQSDVQSTMQQSSASESTLRAPLRSQLQQSRELNRSASFAKSQSGFSQVQNYPPDSDNSRPPGFETASPKPGIRFPDYPQPMNLMQPPSLPVPMNQNPGLPQQFGFPSYPTTESGSSQQFFNGAQYEMTRTESGGSEQSSLLGYPPPSPMTNLNFQGSYPPPSWNPGMAPPHTTQQVNRGRDGQSFGWPQENRDGFGQE
As for B5, the binding result is on record as “binds”.

B6: PTAC16 (protein, UniProt Q9STF2 20-510)
chain: FNRRKPRLTVWAKQTAFQLGKTKGDDDSEGKQKGKNPFQFDFGKLPDMKSLIPVVTNPSTGLVFGNNRKKDPGTIFVAGATGQAGIRIAQTLLQRGFSVRAGVPDLGAAQDLARVAATYKILSNDEVKRLNAVQSPFQDAESIAKAIGNATKVVVTVGATENGPDAQVSTSDALLVVQAAELAGVSHVAIVYDGTISGSTYNVLDGITSFFGNLFAKSQPLTISDLIEKVAQTDVAYTLIKTSLTEDFSPEKAYNVVVSAEGSNSGSGSSSSEAYKVPKLKIASLVADIFANTAVAENKVVEVSTDPSAPSRPVDELFSVIPEDGRRKVYADAIARERAEEEAKVAADKAREAAEAAKEFEKQMQKLSEKEAEAASLAEDAQQKADAVGVTVDGLFNKAKDISSGLSWNKLGSQFATAIQNASETPKVQVATVRGQAKARNLPPKKAVVKQRPSSPFASKPKEERPKKPEKEVRKVFGGLFKQETIYIDDD
In the case of B6, the binding entry was “binds”.

B7: DEAD box RNA helicase 6 (RH6) (protein, UniProt Q94BV4 1-528)
chain: MNNNNNNRGRFPPGIGAAGPGPDPNFQSRNPNPPQPQQYLQSRTPFPQQPQPQPPQYLQSQSDAQQYVQRGYPQQIQQQQQLQQQQQQQQQQQEQQWSRRAQLPGDPSYIDEVEKTVQSEAISDSNNEDWKATLKLPPRDNRYQTEDVTATKGNEFEDYFLKRDLLRGIYEKGFEKPSPIQEESIPIALTGSDILARAKNGTGKTGAFCIPTLEKIDPENNVIQAVILVPTRELALQTSQVCKELSKYLKIEVMVTTGGTSLRDDIMRLYQPVHLLVGTPGRILDLAKKGVCVLKDCAMLVMDEADKLLSVEFQPSIEELIQFLPESRQILMFSATFPVTVKSFKDRYLKKPYIINLMDQLTLMGVTQYYAFVEERQKVHCLNTLFSKLQINQSIIFCNSVNRVELLAKKITELGYSCFYIHAKMVQDHRNRVFHDFRNGACRNLVCTDLFTRGIDIQAVNVVINFDFPRTSESYLHRVGRSGRFGHLGLAVNLVTYEDRFKMYQTEQELGTEIKPIPSLIDKAIYCQ
In the case of B7, the binding result is given as “binds”.
